From PubChem BioAssay AID328 (DTP/NCI, 2004)
The list shows only some results of the screen, not a fair sample: it gathers tests that were run many times, whatever their T/C, doses with no T/C, and many T/C values between a quarter and a half above the control. Further doses and runs are listed elsewhere. T/C is the treated group as % of the vehicle group. Some doses have a count of surviving animals in place of a T/C: the source files T/C as zero there, which appears to mark a toxic dose or a test without result, not a measured value. Some doses without a T/C left all or most animals alive at the check, yet need not have been tolerated: the source hardly ever lists a survival T/C far under the control, and the zero likely stands for such cases as well. Counts of survivors are from the toxicity check (mostly the fifth day) where no day follows; animals may have died later. Schedules are NCI's codes, read here as Q, the interval in days (D) or hours (H), X, the number of doses. Some entries hold several experiments; the results are listed from low to high. For survival time, this PubChem deposit counts one and a half times the control or more as active, and values a quarter to a half above the control carry no call in these data; other NCI protocols may use other cut-offs. Some T/C values are followed by the survivors on the day toxicity was checked, most often the fifth; without a count, all were alive then.

System: BDF1 mice, P388 leukemia ip, median survival T/C
Experiment: NCI In Vivo Anticancer Drug Screen. Data for tumor model P388 Leukemia (intraperitoneal) in B6D2F1 (BDF1) mice
Conditions: T/C endpoint: median survival time, higher T/C = longer survival
In short: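 Vehicle-dosed animals serve as the reference; survival of compound-dosed, tumour-implanted mice is divided by it.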

[1] = dose: 50.0 mg/kg/injection, schedule: Q01DX009 (ip), vehicle: saline
[2] = dose: 100.0 mg/kg/injection, schedule: Q01DX009 (ip), vehicle: saline
[3] = dose: 50.0 mg/kg/injection, schedule: Q01DX009 (ip), vehicle: saline with Tween-80
[4] = dose: 1.0 mg/kg/injection, schedule: Q01DX010 (ip), vehicle: saline

O=C(O)CCCc1ccc(N(CCCl)CCCl)cc1
T/C (dose: 1.0 mg/kg/injection, schedule: Q01DX009 (ip), vehicle: Klucel (hydroxypropylcellulose) (HPC)): 140 % of control
survivor count (dose: 4.0 mg/kg/injection, schedule: Q01DX009 (ip), vehicle: Klucel (hydroxypropylcellulose) (HPC)): 6 of 10
T/C (dose: 6.25 mg/kg/injection, schedule: Q01DX010 (ip), vehicle: saline): 127 % of control
survivor count (dose: 24.0 mg/kg/injection, schedule: Q01DX009 (ip), vehicle: saline): 5 of 8
survivor count (dose: 25.0 mg/kg/injection, schedule: Q01DX010 (ip), vehicle: saline): 0 of 6

O=c1ccccc(Br)c1O
T/C (dose: 50.0 mg/kg/injection, schedule: Q01DX001 (ip), vehicle: Klucel (hydroxypropylcellulose) (HPC)): 131 % of control

O=C1C(N2CC2)=C(N2CCCC(O)C2)C(=O)C(N2CC2)=C1N1CCCC(O)C1 (stereo not given)
T/C (dose: 0.25 mg/kg/injection, schedule: Q01DX009 (ip), vehicle: saline): 148 % of control
T/C (dose: 0.5 mg/kg/injection, schedule: Q01DX009 (ip), vehicle: saline): 131 % of control [5 of 6 alive]

O/C(=C\C(=S)S)c1ccc(Cl)cc1
T/C (dose: 1.56 mg/kg/injection, schedule: Q04DX003 (ip), vehicle: saline with Tween-80): 127 % of control
survivor count (dose: 12.5 mg/kg/injection, schedule: Q04DX003 (ip), vehicle: saline with Tween-80): 0 of 6

Cc1ccc(C)c(CCO)c1
T/C (dose: 100.0 mg/kg/injection, schedule: Q01DX009 (ip), vehicle: other): 130 % of control
survivor count (dose: 400.0 mg/kg/injection, schedule: Q01DX009 (ip), vehicle: other): 0 of 6 and 4 of 6
survivor count (dose: 400.0 mg/kg/injection, schedule: Q04DX003 (ip), vehicle: saline with Tween-80): 6 of 6

C/C1=C/C2=CC(C)C[C@@H]2C(=O)[C@]2(C)C(=O)CC(C)(C)[C@H]2CC1=O (stereo not given in full)
T/C (dose: 0.5 mg/kg/injection, schedule: Q01DX009 (ip), vehicle: alcohol): 141 % of control
T/C (dose: 1.0 mg/kg/injection, schedule: Q01DX009 (ip), vehicle: alcohol): 128 and 130 % of control

NCC(=O)O.[Cl][Ga]([Cl])[Cl]
T/C [1]: 137 % of control
T/C [2]: 141 % of control [5 of 6 alive]

CN=S(=O)(OC/C=C/COS(=O)(=NC)c1ccc(C)cc1)c1ccc(C)cc1 (stereo not given)
T/C [3]: 128 % of control
survivor count (dose: 100.0 mg/kg/injection, schedule: Q01DX009 (ip), vehicle: saline + alcohol): 4 of 6
survivor count (dose: 200.0 mg/kg/injection, schedule: Q01DX009 (ip), vehicle: saline + alcohol): 0 of 6

CCCCC(CC)CC1CCCCC1O (stereo not given)
survivor count (dose: 400.0 mg/kg/injection, schedule: Q01DX009 (ip), vehicle: Klucel (hydroxypropylcellulose) (HPC)): 2 of 6

COc1cc(Nc2ncnc(N)c2[N+](=O)[O-])cc(OC)c1OC
survivor count (dose: 200.0 mg/kg/injection, schedule: Q01DX001 (ip), vehicle: saline with Tween-80): 6 of 6

Cc1cc(=O)c2cc(N(C)C)ccc2[nH]1
survivor count (dose: 200.0 mg/kg/injection, schedule: Q01DX009 (ip), vehicle: water): 6 of 6

Cc1cc2nc(CBr)c(CBr)nc2cc1C
survivor count (dose: 9.2 mg/kg/injection, schedule: Q01DX009 (ip), vehicle: saline): 4 of 6
survivor count (dose: 14.0 mg/kg/injection, schedule: Q01DX009 (ip), vehicle: saline): 0 of 6
survivor count (dose: 21.0 mg/kg/injection, schedule: Q01DX009 (ip), vehicle: saline): 0 of 6
survivor count (dose: 28.0 mg/kg/injection, schedule: Q04DX003 (ip), vehicle: saline): 1 of 6
survivor count (dose: 40.0 mg/kg/injection, schedule: Q04DX003 (ip), vehicle: saline): 3 of 6

CC(=O)OC1C=CCC2C(=O)C34CC=CC(OC(C)=O)C3(C(=O)c3ccccc3C4=O)C(=O)C12 (stereo not given)
survivor count (dose: 6.25 mg/kg/injection, schedule: Q01DX009 (ip), vehicle: saline): 6 of 6
T/C [1]: 126 % of control

CCCCCCCCCCCCCCCC(=O)NCCO
T/C (dose: 50.0 mg/kg/injection, schedule: Q04DX003 (ip), vehicle: saline sonified): 141 % of control
survivor count (dose: 200.0 mg/kg/injection, schedule: Q04DX003 (ip), vehicle: saline sonified): 6 of 6

CCOC(C[Se][Se]CC(OCC)OCC)OCC
survivor count (dose: 12.5 mg/kg/injection, schedule: Q01DX009 (ip), vehicle: saline): 1 of 6

CCC(C)n1ncc2c(N(C)C)ncnc21 (stereo not given)
survivor count (dose: 25.0 mg/kg/injection, schedule: Q01DX009 (ip), vehicle: Klucel (hydroxypropylcellulose) (HPC)): 6 of 6
survivor count (dose: 100.0 mg/kg/injection, schedule: Q01DX009 (ip), vehicle: Klucel (hydroxypropylcellulose) (HPC)): 6 of 6
survivor count (dose: 200.0 mg/kg/injection, schedule: Q01DX009 (ip), vehicle: Klucel (hydroxypropylcellulose) (HPC)): 1 of 6
survivor count (dose: 400.0 mg/kg/injection, schedule: Q04DX003 (ip), vehicle: Klucel (hydroxypropylcellulose) (HPC)): 2 of 6

Clc1nn2cnnc2c2ccccc12
survivor count (dose: 20.0 mg/kg/injection, schedule: Q01DX009 (ip), vehicle: saline): 4 of 7

CCN1/C(=C/C=C/c2oc3ccccc3[n+]2CC)Oc2ccccc21
T/C (dose: 0.15 mg/kg/injection, schedule: Q01DX009 (ip), vehicle: Klucel (hydroxypropylcellulose) (HPC)): 125 % of control [5 of 6 alive]
T/C (dose: 0.25 mg/kg/injection, schedule: Q04DX003 (ip), vehicle: Klucel (hydroxypropylcellulose) (HPC)): 130 % of control
T/C (dose: 0.3 mg/kg/injection, schedule: Q01DX009 (ip), vehicle: Klucel (hydroxypropylcellulose) (HPC)): 135 % of control
survivor count (dose: 0.3 mg/kg/injection, schedule: Q01DX009 (ip), vehicle: saline): 6 of 6
T/C (dose: 0.5 mg/kg/injection, schedule: Q01DX010 (ip), vehicle: saline): 136 % of control
T/C (dose: 0.5 mg/kg/injection, schedule: Q04DX003 (ip), vehicle: Klucel (hydroxypropylcellulose) (HPC)): 125 % of control
T/C (dose: 0.6 mg/kg/injection, schedule: Q01DX009 (ip), vehicle: saline): 133 % of control
survivor count [4]: 3 of 6
T/C (dose: 1.0 mg/kg/injection, schedule: Q04DX003 (ip), vehicle: Klucel (hydroxypropylcellulose) (HPC)): 125 % of control [5 of 6 alive]
T/C (dose: 1.2 mg/kg/injection, schedule: Q01DX009 (ip), vehicle: saline): 133 % of control
survivor count (dose: 2.0 mg/kg/injection, schedule: Q04DX003 (ip), vehicle: Klucel (hydroxypropylcellulose) (HPC)): 3 of 6
T/C (dose: 300.0 micrograms/kg/injection, schedule: Q01DX009 (ip), vehicle: Klucel (hydroxypropylcellulose) (HPC)): 141 % of control

Nc1nc(=S)c2ncn(C3OC(CO)C(O)C3O)c2[nH]1 (stereo not given)
T/C [4]: 131 % of control
T/C (dose: 2.0 mg/kg/injection, schedule: Q01DX010 (ip), vehicle: saline): 131 % of control
T/C [2]: 128 % of control
T/C (dose: 100.0 mg/kg/injection, schedule: Q04DX003 (ip), vehicle: saline): 136 % of control
T/C (dose: 200.0 mg/kg/injection, schedule: Q04DX003 (ip), vehicle: saline with Tween-80): 140 % of control
T/C (dose: 200.0 mg/kg/injection, schedule: Q04DX003 (ip), vehicle: saline): 136 % of control
T/C (dose: 400.0 mg/kg/injection, schedule: Q04DX003 (ip), vehicle: saline): 131 % of control

BrC1CC(Br)c2c1c1c(c3c2C(Br)CC3Br)C(Br)CC1Br (stereo not given)
T/C [3]: 137 % of control
T/C (dose: 100.0 mg/kg/injection, schedule: Q01DX009 (ip), vehicle: saline with Tween-80): 146 % of control

CC1=CCC2(C)C(=O)C1CC1=C2CC(C)(C)CC1=O (stereo not given)
survivor count (dose: 200.0 mg/kg/injection, schedule: Q01DX009 (ip), vehicle: saline): 6 of 6

c1ccc2c(c1)OP(OP1Oc3ccccc3O1)O2
survivor count (dose: 150.0 mg/kg/injection, schedule: Q01DX009 (ip), vehicle: saline with Tween-80): 4 of 6
survivor count (dose: 225.0 mg/kg/injection, schedule: Q01DX009 (ip), vehicle: saline with Tween-80): 0 of 6
survivor count (dose: 225.0 mg/kg/injection, schedule: Q04DX003 (ip), vehicle: saline): 5 of 6
survivor count (dose: 335.0 mg/kg/injection, schedule: Q01DX009 (ip), vehicle: saline with Tween-80): 0 of 6
survivor count (dose: 335.0 mg/kg/injection, schedule: Q04DX003 (ip), vehicle: saline): 2 of 6
